Results reported in ChEMBL document CHEMBL1151987, “Glionitrin A, an antibiotic-antitumor metabolite derived from competitive interaction between abandoned mine microbes” (J Nat Prod, 2009).
Converted amounts (≈) assume the structure as drawn.

System: Aspergillus fumigatus
Assay: Antifungal activity against Aspergillus fumigatus HIC 6094
Assay type: functional

## C[C@@H]1[C@H](O)[C@@H](C)/C=C/C=C/C=C/C=C/C=C/C=C/C=C/[C@H](O[C@@H]2O[C@H](C)[C@@H](O)[C@H](N)[C@@H]2O)C[C@@H]2O[C@](O)(C[C@@H](O)C[C@@H](O)[C@H](O)CC[C@@H](O)C[C@@H](O)CC(=O)O[C@H]1C)C[C@H](O)[C@H]2C(=O)O [AMPHOTERICIN B]
  MIC: 1.56 µg/mL (≈ 1.69 µM)
